The list is a part of this screen's results and no random one: it is rich in T/C values a quarter to a half above the control, in often repeated tests (any T/C) and in doses without a T/C. Further doses and runs are listed elsewhere. T/C gives the treated animals as a percentage of the vehicle group. Some entries give survivors of the animals treated and no T/C: the source files T/C as zero there, which appears to mark a toxic dose or a test without result, not a measured value. Some survivor counts are full or nearly so, which does not show that the dose was tolerated: survival well below the control is almost never listed, so the zero probably covers shortened survival too. Counts of survivors are from the toxicity check (mostly the fifth day) where no day follows; animals may have died later. Schedules are NCI's codes, taken here to give the interval after Q, in days (D) or hours (H), and the number of doses after X. Some doses were run more than once; the results are listed from low to high. Where survival is the endpoint, this PubChem deposit counts one and a half times the control or more as active, and values a quarter to a half above the control carry no call in these data; other NCI protocols may use other cut-offs. Some T/C values are followed by the survivors on the day toxicity was checked, most often the fifth; where none is given, no animal had died by that day. Brackets with × give the number of equal values in this list.
System: P388 leukemia ip, CD2F1 mice, survival T/C
Test: NCI In Vivo Anticancer Drug Screen. Data for tumor model P388 Leukemia (intraperitoneal) in CD2F1 (CDF1) mice
Conditions: T/C endpoint: median survival time, higher T/C = longer survival
[1] = dose: 25.0 mg/kg/injection, schedule: Q01DX009 (ip), vehicle: saline with Tween-80
[2] = dose: 100.0 mg/kg/injection, schedule: Q01DX009 (ip), vehicle: Klucel (hydroxypropylcellulose) (HPC)
[3] = dose: 200.0 mg/kg/injection, schedule: Q01DX009 (ip), vehicle: Klucel (hydroxypropylcellulose) (HPC)
[4] = dose: 50.0 mg/kg/injection, schedule: Q01DX009 (ip), vehicle: Klucel (hydroxypropylcellulose) (HPC)
[5] = dose: 50.0 mg/kg/injection, schedule: Q01DX005 (ip), vehicle: Klucel (hydroxypropylcellulose) (HPC)
[6] = dose: 200.0 mg/kg/injection, schedule: Q01DX005 (ip), vehicle: Klucel (hydroxypropylcellulose) (HPC)
[7] = dose: 120.0 mg/kg/injection, schedule: Q01DX005 (ip), vehicle: saline with Tween-80
[8] = dose: 240.0 mg/kg/injection, schedule: Q01DX005 (ip), vehicle: saline with Tween-80
[9] = dose: 200.0 mg/kg/injection, schedule: Q01DX009 (ip), vehicle: saline
[10] = dose: 200.0 mg/kg/injection, schedule: Q01DX005 (ip), vehicle: saline
[11] = dose: 100.0 mg/kg/injection, schedule: Q01DX009 (ip), vehicle: saline with Tween-80
[12] = dose: 100.0 mg/kg/injection, schedule: Q04DX003 (ip), vehicle: saline with Tween-80
[13] = dose: 400.0 mg/kg/injection, schedule: Q04DX003 (ip), vehicle: saline with Tween-80
[14] = dose: 25.0 mg/kg/injection, schedule: Q01DX009 (ip), vehicle: Klucel (hydroxypropylcellulose) (HPC)
[15] = dose: 100.0 mg/kg/injection, schedule: Q01DX005 (ip), vehicle: saline
[16] = dose: 100.0 mg/kg/injection, schedule: Q01DX009 (ip), vehicle: other
[17] = dose: 100.0 mg/kg/injection, schedule: Q01DX009 (ip), vehicle: water

`CC1=C(/C=C/C(C)=N/NC(N)=S)C(C)(C)CCC1` was tested. Which survivor count [1] did it give?
Its survivor count is 2 of 6.

For `Cc1cc2nc(N(C)C)cc(N(C)C)c2cc1C`, which survivor count [2] is on record?
Its survivor count is 2 of 6.

And the survivor count [3]?
The survivor count was 0 of 6.

`O=c1cc(-c2ccccc2)nc(Sc2ccc([N+](=O)[O-])cc2[N+](=O)[O-])[nH]1` was tested. Which survivor count [4] did it give?
Its survivor count is 6 of 6.

What about the survivor count [2] of the same compound?
The survivor count was 6 of 6.

`Cc1ccc(S(=O)(=O)N=P(c2ccccc2)(c2ccccc2)c2ccccc2)cc1` was tested. Which survivor count (dose: 400.0 mg/kg/injection, schedule: Q01DX009 (ip), vehicle: saline with Tween-80) did it give?
Its survivor count is 6 of 6.

How did the survivor count [5] turn out when `Cc1cc(N/N=C/c2cccc3ccccc23)c2cc3c(cc2n1)OCO3` was run?
The survivor count was 1 of 6.

What about the survivor count (dose: 100.0 mg/kg/injection, schedule: Q01DX005 (ip), vehicle: Klucel (hydroxypropylcellulose) (HPC)) of the same compound?
The survivor count was 0 of 6.

And the survivor count [6]?
The survivor count was 0 of 6.

Which survivor count [7] does the source give for `S=c1n(-c2ccc(Cl)cc2)c2/c(=N\Nc3cc(Cl)ccc3Cl)c(n1-c1ccccn1)=NCCN=2` here?
The survivor count was 4 of 6.

And the survivor count [8]?
Its survivor count is 1 of 6.

`N#Cc1sc(=S)n(-c2ccccc2)c1N` was tested. Which survivor count (dose: 100.0 mg/kg/injection, schedule: Q01DX009 (ip), vehicle: saline) did it give?
Its survivor count is 6 of 6.

What about the survivor count [9] of the same compound?
Its survivor count is 4 of 6.

With `O=C(O)CCCNC(=O)Cc1ccccc1` as the compound, how does the survivor count [10] read?
The survivor count was 5 of 6.

Which survivor count [8] does the source give for `S=C(SSC(=S)N1CCOCC1)N1CCOCC1` here?
Its survivor count is 3 of 6.

`N#CC1[C@@H](C(=O)c2ccccc2)N2C=Cc3ccccc3[C@@H]2[C@H]1C#N` (stereo partly drawn) was tested. Which survivor count [7] did it give?
The survivor count was 6 of 6.

And the survivor count [8]?
Its survivor count is 6 of 6.

`CCCCCCCCCCCCCCCC[N+]1(CCCCCCCCCCCC)CCSCC1` (tested in a mixture with another compound) was tested. Which T/C (dose: 20.0 mg/kg/injection, schedule: Q01DX009 (ip), vehicle: saline with Tween-80) did it give?
Its T/C is 139 % of control.

`C[CH2][GeH][CH2]C.C[CH2][Ge]([CH2]C)[CH2]C` was tested. Which survivor count [9] did it give?
The survivor count was 0 of 6.

With `N#CC1=C(C#N)C(=O)C(Br)=C(Br)C1=O` as the compound, how does the survivor count (dose: 50.0 mg/kg/injection, schedule: Q01DX005 (ip), vehicle: Klucel + Tween-80) read?
Its survivor count is 3 of 6.

What about the survivor count (dose: 100.0 mg/kg/injection, schedule: Q01DX005 (ip), vehicle: Klucel + Tween-80) of the same compound?
Its survivor count is 0 of 6.

And the survivor count (dose: 200.0 mg/kg/injection, schedule: Q01DX005 (ip), vehicle: Klucel + Tween-80)?
The survivor count was 0 of 6.

What does the source list for `CN(C)c1ccc(N(C)C)c(C(O)(c2ccccc2)c2ccccc2)c1`?
survivor count [11]: 6 of 6; survivor count (dose: 200.0 mg/kg/injection, schedule: Q01DX009 (ip), vehicle: saline with Tween-80): 6 of 6

Which survivor count [12] does the source give for `C[N+](C)(Cn1nc(Cl)c2cc([N+](=O)[O-])ccc21)Cn1nc(Cl)c2cc([N+](=O)[O-])ccc21` here?
The survivor count was 6 of 6.

And the survivor count [13]?
The survivor count was 5 of 6.

Which survivor count (dose: 200.0 mg/kg/injection, schedule: Q01DX005 (ip), vehicle: saline with Tween-80) does the source give for `CCC1CN2CCC1CC2C(O)c1ccnc2ccc(OC)cc12` (stereo not drawn) here?
The survivor count was 2 of 6.

Which T/C (dose: 12.5 mg/kg/injection, schedule: Q01DX009 (ip), vehicle: Klucel (hydroxypropylcellulose) (HPC)) does the source give for `CCN1/C(=C/C=C2\CCC(/C=C/c3sc4ccc(Cl)cc4[n+]3CC)=C2N(c2ccccc2)c2ccccc2)Sc2ccc(Cl)cc21` here?
Its T/C is 128 and 137 % of control.

And the T/C [14]?
The T/C was 128 % of control.

What about the survivor count [14] of the same compound?
The survivor count was 6 of 6.

And the survivor count [4]?
The survivor count was 2 of 6.

For `COCC1(O)C=CC(=O)O1` (stereo not drawn), which T/C (dose: 50.0 mg/kg/injection, schedule: Q01DX005 (ip), vehicle: saline) is on record?
The T/C was 125 % of control.

What about the T/C [15] of the same compound?
The T/C was 133 % of control.

What about the survivor count [15] of the same compound?
Its survivor count is 3 of 6.

And the survivor count [10]?
Its survivor count is 0 of 6 and 3 of 6.

`Cc1ccc2c(=O)[nH]cnc2c1` was tested. Which T/C [4] did it give?
Its T/C is 128 % of control.

With `CC1C(C(=O)NCCc2ccccc2)CC2CCCCN21` (stereo not drawn) as the compound, how does the survivor count [8] read?
Its survivor count is 0 of 6.

With `Nc1c(/C=C/c2cc3cc(C4=NCCN4)ccc3o2)[nH]c2cc(C3=NCCN3)ccc12` as the compound, how does the T/C (dose: 12.5 mg/kg/injection, schedule: Q01DX005 (ip), vehicle: Klucel (hydroxypropylcellulose) (HPC)) read?
Its T/C is 128 % of control.

What about the T/C (dose: 25.0 mg/kg/injection, schedule: Q01DX005 (ip), vehicle: Klucel (hydroxypropylcellulose) (HPC)) of the same compound?
Its T/C is 139 % of control.

What about the T/C [5] of the same compound?
The T/C was 143 % of control [5 of 6 alive].

And the survivor count [6]?
Its survivor count is 0 of 6.

Which T/C (dose: 6.25 mg/kg/injection, schedule: Q01DX009 (ip), vehicle: Klucel (hydroxypropylcellulose) (HPC)) does the source give for `Cc1ccc(S(=O)(=O)N/N=C/C(=O)O)cc1` here?
The T/C was 126 % of control.

What about the T/C (dose: 12.5 mg/kg/injection, schedule: Q01DX009 (ip), vehicle: distilled water + Tween-80) of the same compound?
Its T/C is 115, 122, 133, 137, 153 % of control.

And the T/C (dose: 12.5 mg/kg/injection, schedule: Q01DX009 (ip), vehicle: other)?
Its T/C is 117, 124, 128 (2×), 131, 132, 134, 136, 137, 138, 139 (2×), 147 % of control.

And the T/C (dose: 12.5 mg/kg/injection, schedule: Q01DX009 (ip), vehicle: water)?
The T/C was 117, 125, 141 (2×), 145, 150 % of control.

What about the T/C [14] of the same compound?
Its T/C is 131, 133, 140 % of control.

And the T/C (dose: 25.0 mg/kg/injection, schedule: Q01DX009 (ip), vehicle: distilled water + Tween-80)?
The T/C was 131, 133, 140, 142, 171 % of control.

What about the T/C (dose: 25.0 mg/kg/injection, schedule: Q01DX009 (ip), vehicle: other) of the same compound?
Its T/C is 135 (2×), 137 (2×), 138, 139, 141, 142, 146, 149, 151, 155, 163 % of control.

And the T/C [1]?
The T/C was 129 % of control [5 of 6 alive].

And the T/C (dose: 25.0 mg/kg/injection, schedule: Q01DX009 (ip), vehicle: water)?
Its T/C is 137, 139, 150, 157, 166, 172 % of control.

And the T/C [4]?
Its T/C is 142 and 145 % of control.

What about the T/C (dose: 50.0 mg/kg/injection, schedule: Q01DX009 (ip), vehicle: distilled water + Tween-80) of the same compound?
The T/C was 130, 156, 158, 159, 192 % of control.

And the T/C (dose: 50.0 mg/kg/injection, schedule: Q01DX009 (ip), vehicle: other)?
Its T/C is 147, 152 (2×), 153, 157, 158, 159, 163, 171, 175, 179, 180 % of control (2×).

And the T/C (dose: 50.0 mg/kg/injection, schedule: Q01DX009 (ip), vehicle: saline with Tween-80)?
The T/C was 147 % of control.

What about the T/C (dose: 50.0 mg/kg/injection, schedule: Q01DX009 (ip), vehicle: water) of the same compound?
Its T/C is 143, 145 [5 of 6 alive], 160 [5 of 6 alive], 179 (2×), 184 % of control.

What about the T/C (dose: 100.0 mg/kg/injection, schedule: Q01DX009 (ip), vehicle: distilled water + Tween-80) of the same compound?
Its T/C is 98, 104, 128, 153, 192 % of control.

What about the T/C [16] of the same compound?
The T/C was 88, 89, 111 [5 of 6 alive], 149, 209 % of control.

And the survivor count [16]?
Its survivor count is 4 of 6, 5 of 6, 6 of 6.

And the T/C [17]?
Its T/C is 87, 130, 196, 198 % of control.

What about the survivor count [17] of the same compound?
The survivor count was 2 of 6 and 5 of 6.

What about the survivor count [3] of the same compound?
The survivor count was 3 of 6, 5 of 6, 6 of 6.

Which results are given for `[Br][Sn]([Br])([CH2]c1ccccc1)[c]1ccccc1`?
T/C (dose: 12.5 mg/kg/injection, schedule: Q04DX003 (ip), vehicle: saline with Tween-80): 134 % of control; survivor count (dose: 25.0 mg/kg/injection, schedule: Q04DX003 (ip), vehicle: saline with Tween-80): 2 of 6; survivor count [12]: 0 of 6; survivor count (dose: 200.0 mg/kg/injection, schedule: Q04DX003 (ip), vehicle: saline with Tween-80): 0 of 6; survivor count [13]: 0 of 6

`C=C(C)C12OC3(CCCCCCCCC)OC1C1C4OC4(CO)C(O)C4(O)C(=O)C(C)=CC4C1(O3)C(C)C2OC(C)=O` (stereo not drawn) was tested. Which survivor count (dose: 400.0 micrograms/kg/injection, schedule: Q01DX009 (ip), vehicle: saline + alcohol) did it give?
The survivor count was 6 of 6.

How did the survivor count [11] turn out when `CCC1(C)C(C#N)C(=O)NC(=O)C1C#N` (stereo not drawn) was run?
Its survivor count is 2 of 6.

— PubChem BioAssay AID330 (DTP/NCI, 2004)
